The results are deposited in PubChem (AID1159506; NCATS, 2015).

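Luminescence from an EWS-FLI1 target-promoter (NR0B1) reporter, set against a CMV-promoter reporter, two days after silencing single genes in TC32 Ewing sarcoma cells.
Each siRNA was applied at 20 nM.
A z-score of the log NR0B1-over-CMV signal, less the median of siRNAs with the same seed; more negative means a stronger specific loss of the NR0B1 reporter.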

This is part of the screen; most of the strongest results are not listed here.
Sequences are the guide (antisense) strand, without overhang.

| # | strand | gene | seed-corrected z-score |
|---|---|---|---|
| 1 | `UCUAUAGCAAAGGUAAAUC` | DENND4A | -0.03714 |
| 2 | `ACUGUCUUCAUCUUGUUCG` | LYPD3 | -0.7012 |
| 3 | `UAAGACAUCAGUCAUCUCC` | MINOS1 | 0.202 |
| 4 | `UUUUGUACCUGCGAGGAGG` | EDA2R | -0.5677 |
| 5 | `ACAUAUAUGAUGGGCCUGC` | KRTAP12-3 | 0.4488 |
| 6 | `AAAGGACCGAGCAGGGUUA` | AQP1 | 0.8212 |
| 7 | `UUAUGUCCCAGUUCAAGGC` | DFFA | -1.058 |
| 8 | `UCCUGUUAAACCACUGAGG` | KCNK18 | -0.1043 |
| 9 | `UAUCCGAAUAUUUCGGUCC` | MAPKBP1 | 0.2099 |
| 10 | `UCGGUAUCAUUCUUGAUUC` | GRK4 | -0.7363 |
| 11 | `UCAGCAAAGAAAAAUGUCC` | PRSS37 | -0.2571 |
| 12 | `UUCAUACUCCGCAUUCUCC` | RNF8 | 0.1507 |
| 13 | `AUCGUUCUCAACAUCCUUC` | PPP2R3A | 0.858 |
| 14 | `UUACACUCGUGGUUGAUGC` | ZNF423 | -0.1608 |
| 15 | `AAAUGCCUCAGGAACAGAC` | C11orf94 | -0.9283 |
| 16 | `AAUCUUCAAUGGUUGGAUC` | RRAS2 | -1.181 |
| 17 | `UAAUUGACAUAUUCAUCCC` | GP6 | 0.3449 |
| 18 | `UUACAUCCAGAGUAUAACC` | HNRNPR | -0.3365 |
| 19 | `UUUCCGUAUGCAGUUGAGG` | GRID1 | -0.07793 |
| 20 | `AUAGUUGUCAGUCUCAUAG` | FAAH | -0.4893 |
| 21 | `UCAAGGUUCACAAAGACCC` | C1QTNF6 | 1.094 |
| 22 | `UUCGAAGUUAAAGACCUCC` | LRRC7 | -0.3951 |
| 23 | `UCAACUUCUAUGAUCUUCC` | SLC1A1 | -0.6948 |
| 24 | `ACAGUUGUCAGGAUUGAGG` | OR51A4 | -0.4129 |
| 25 | `UCGGUUGUGAAUAAGAUCG` | KIAA0556 | -0.9098 |
| 26 | `UUCUUGAACUCGUCCACGG` | HPCAL1 | -0.2117 |
| 27 | `UAACCGAGAACUGAGUAGG` | RASGEF1B | 0.2913 |
| 28 | `UGAUCCUUUACACUGAUAC` | CD3G | -0.1086 |
| 29 | `UGUCGAUUAAGGUGAGAGC` | ZSCAN26 | 0.6977 |
| 30 | `UAGAGAUUGCAGACUGUCC` | FAM66C | 0.3216 |
| 31 | `UACACGGACACUGAGGUUC` | TRIP10 | 0.3163 |
| 32 | `ACAUUUCACAUUGAUGCCG` | GMEB2 | -0.5075 |
| 33 | `AAAUGUCCCUCAGCCUUUG` | EDN2 | 0.4816 |
| 34 | `UGUCAGACUUGUCUACUGC` | SLC1A1 | 0.00766 |
| 35 | `UCCUGGGUAAGGCUCCUGU` | MUSTN1 | -1.302 |
| 36 | `UCUUCGAGUAGAAUGAGCC` | ADAMTS12 | -0.053 |
| 37 | `UUCUACAUAACAAGUUUCU` | KPRP | 0.2657 |
| 38 | `CAGGUGACUUGAGCAAGGG` | GRAP | -0.5588 |
| 39 | `UGUCAAUCAAGGUUAUUCG` | TRPM6 | -0.2956 |
| 40 | `AUCGUGGUAGUAUCCCAGG` | PLEKHB1 | -1.427 |
| 41 | `AGAGGGAUAAGAGCAAUAA` | AK4P3 | -0.04197 |
| 42 | `UAACCUUGCAUUUGGUUCC` | GZMK | 0.3492 |
| 43 | `UCACUUCUCCAGUUUUACC` | HS6ST1P1 | -0.3537 |
| 44 | `UUUGUCGUUGUCUCCAUCC` | ANGPT2 | -0.3583 |
| 45 | `UGGUAUAGCAGGGUCAUUG` | ALOX15B | -0.9563 |
| 46 | `UGAUGUUUUCGUUCAGGGC` | PRR5L | -0.6604 |
| 47 | `UGUUGUGAUAGGUGUACCC` | PCDH15 | 0.68 |
| 48 | `AUAGAGAACAUUAAAUGGU` | PA2G4 | -0.7361 |
| 49 | `CCUCUCCUUAGUUUCGUGG` | HNRNPA1P35 | 0.2699 |
| 50 | `UAAUGUAAGCCUGCAGCUC` | CAP1 | 0.02945 |
| 51 | `UGACUUUUGGGCUUUCUGC` | PHC1P1 | -1.143 |
| 52 | `UGAACUCCCUCUGUAAUGG` | NRBP1 | 0.8864 |
| 53 | `UUACGAUUGCAAACUCAGC` | CCNYL2 | -0.514 |
| 54 | `UGGUGUACCAAAACGAGGC` | KCND3 | -0.5622 |
| 55 | `UCAGGAAACCUCCAUACCG` | PENK | 0.06328 |
| 56 | `AGAGUUCCCAGUUAAACCC` | GALNT8 | -0.1476 |
| 57 | `UUAAUAGGCAGGGCAUUUC` | WBSCR27 | -1.58 |
| 58 | `UCAAAGAAACUCCAUACCU` | DPY19L3 | 0.3728 |
| 59 | `UACAGUUACACAAAGGGUC` | HIGD2A | 0.2736 |